Assay results as given in the supplement of paper PMC5662767.
Where a name gives a salt, the structure may show the parent alone. Some of the results follow. Part of the spread comes from offsets between plates or batches.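 A clonal Drosophila S2 line expresses Smoothened bearing circularly permuted GFP in its cytoplasmic tail; Hh-driven phosphorylation opens an inhibitory loop, making it fluoresce. Flow cytometry measured per-cell fluorescence, normalized to Hh-stimulated untreated cells. Hits were inhibitor groups with shared pathway targets that consistently shifted fluorescence, not individual compounds.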

Tested on: Drosophila S2 cl14 SmoIP sensor cells
Test: normalized SmoIP GFP fluorescence (untreated unstimulated = 0%, untreated Hh-stimulated = 100%); higher = more Smo activation sensor fluorescence
Details: stimulation: Hh conditioned medium (+Hh); compound concentration: 15 uM; 24 h

SMILES | normalized SmoIP GFP fluorescence
O=C(NCc1ccc(Oc2ccccc2)cc1)c1nc(-c2cc(Br)c(O)c(Br)c2)no1 [iowh032] | 154%
CC1C(=O)OC2C(O)C34C5CC(C(C)(C)C)C36C(OC(=O)C6O)OC4(C(=O)O5)C12O (stereo not drawn) [Ginkgolide-B] | 133%
Nc1nnc(-c2cccc(Cl)c2Cl)c(N)n1 [lamotrigine] | 118%

Same assay, conditions: stimulation: mock conditioned medium (-Hh); compound concentration: 15 uM; 24 h

SMILES | normalized SmoIP GFP fluorescence
COC(=O)[C@]12CCC(C)(C)C[C@H]1[C@H]1C(=O)C=C3[C@@]4(C)C=C(C#N)C(=O)C(C)(C)[C@@H]4CC[C@@]3(C)[C@]1(C)CC2 [bardoxolone-methyl] | -2.08%
COc1cccc(-c2cc(=O)c3ccccc3o2)c1N | 18.3%
O=C1NC(=O)/C(=C/c2ccc3c(c2)OC(F)(F)O3)S1 | 11.9%
CN(C)CCC[C@@]1(c2ccc(F)cc2)OCc2cc(C#N)ccc21 [escitalopram-oxalate] | 8.94%
COc1ccc2[nH]c([S+]([O-])Cc3ncc(C)c(OC)c3C)nc2c1 (stereo not drawn) [Omeprazole] | 0.812%
C[C@@H](NCCc1ccc(O)cc1)[C@@H](O)c1ccc(O)cc1 [Ritodrine-hydrochloride-Yutopar] | -16.4%
N#CC1(c2ccc(NC(=O)c3cccnc3NCc3ccncc3)cc2)CCCC1 [Apatinib-YN968D1] | 45.5%
NC(=O)C(c1ccccc1)(c1ccccc1)[C@@H]1CCN(CCc2ccc3c(c2)CCO3)C1 [darifenacin-hydrobromide] | 27.2%
Cc1cc(Cn2cnc3c2CC(C(=O)O)N(C(=O)C(c2ccccc2)c2ccccc2)C3)ccc1N(C)C (stereo not drawn) | -3.16%
CC(C)NCC(O)COc1cccc2ccccc12 (stereo not drawn) [propranolol-hcl] | 16.7%
